According to publication doi:10.1101/2021.01.19.427213:
Results are given in words; binding and its absence hold for the method and conditions named. In cells and extracts the contact can be indirect. Some entries that bind do so weakly or less than the wild type.

Sequences of proteins named here, by UniProt entry; tags and fusion partners are left off.
UniProt Q00899: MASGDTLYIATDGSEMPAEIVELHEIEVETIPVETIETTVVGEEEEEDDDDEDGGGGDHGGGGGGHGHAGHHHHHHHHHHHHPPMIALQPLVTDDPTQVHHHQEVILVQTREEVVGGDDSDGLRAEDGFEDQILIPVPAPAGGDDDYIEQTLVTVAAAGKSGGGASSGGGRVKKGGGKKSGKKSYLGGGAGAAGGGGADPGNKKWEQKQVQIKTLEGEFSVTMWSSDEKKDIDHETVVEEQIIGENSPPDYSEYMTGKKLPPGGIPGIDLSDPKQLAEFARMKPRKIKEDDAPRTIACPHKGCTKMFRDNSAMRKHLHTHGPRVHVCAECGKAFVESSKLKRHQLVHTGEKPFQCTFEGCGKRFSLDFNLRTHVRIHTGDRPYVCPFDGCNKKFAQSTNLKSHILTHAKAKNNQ
UniProt Q8K4Q0: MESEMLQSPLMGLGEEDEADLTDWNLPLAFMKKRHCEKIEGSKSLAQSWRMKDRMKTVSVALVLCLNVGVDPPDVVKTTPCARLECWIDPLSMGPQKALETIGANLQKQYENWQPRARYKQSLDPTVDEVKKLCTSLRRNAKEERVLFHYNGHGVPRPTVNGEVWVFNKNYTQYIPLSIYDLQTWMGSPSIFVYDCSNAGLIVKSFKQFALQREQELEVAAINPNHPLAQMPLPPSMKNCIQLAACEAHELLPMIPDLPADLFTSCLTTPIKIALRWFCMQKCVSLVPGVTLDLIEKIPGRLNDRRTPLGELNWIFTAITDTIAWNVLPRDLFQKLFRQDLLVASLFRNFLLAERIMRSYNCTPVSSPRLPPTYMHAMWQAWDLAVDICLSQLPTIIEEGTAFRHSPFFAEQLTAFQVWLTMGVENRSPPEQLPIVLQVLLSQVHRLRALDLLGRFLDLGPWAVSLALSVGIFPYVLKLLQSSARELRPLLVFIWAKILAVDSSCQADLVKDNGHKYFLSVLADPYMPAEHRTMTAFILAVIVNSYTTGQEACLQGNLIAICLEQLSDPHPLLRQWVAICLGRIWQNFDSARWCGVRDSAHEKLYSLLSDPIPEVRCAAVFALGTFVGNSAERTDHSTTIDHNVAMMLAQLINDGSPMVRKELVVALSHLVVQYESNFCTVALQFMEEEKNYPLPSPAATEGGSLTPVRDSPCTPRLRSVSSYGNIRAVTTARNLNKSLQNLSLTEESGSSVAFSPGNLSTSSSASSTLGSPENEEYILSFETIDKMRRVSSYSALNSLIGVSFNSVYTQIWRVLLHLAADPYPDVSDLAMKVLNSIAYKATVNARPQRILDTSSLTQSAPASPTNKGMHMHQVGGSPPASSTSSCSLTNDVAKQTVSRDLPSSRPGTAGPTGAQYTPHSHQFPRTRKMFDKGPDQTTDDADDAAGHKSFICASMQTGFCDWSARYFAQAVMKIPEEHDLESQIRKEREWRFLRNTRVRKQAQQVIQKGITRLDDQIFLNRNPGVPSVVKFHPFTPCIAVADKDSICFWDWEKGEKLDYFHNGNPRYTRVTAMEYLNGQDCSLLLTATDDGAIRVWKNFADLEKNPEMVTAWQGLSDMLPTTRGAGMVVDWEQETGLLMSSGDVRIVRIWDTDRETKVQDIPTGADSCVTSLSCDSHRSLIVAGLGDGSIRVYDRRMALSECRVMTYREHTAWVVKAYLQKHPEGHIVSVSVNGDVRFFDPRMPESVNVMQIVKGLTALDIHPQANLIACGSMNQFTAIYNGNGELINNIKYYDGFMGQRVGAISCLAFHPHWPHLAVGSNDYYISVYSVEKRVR

Molecular target: Yin Yang transcription factor 1 (YY1) (mouse (endogenous in heart)) (UniProt Q00899)
Assay: co-IP

binding: binds
Substance: Raptor (from UniProt Q8K4Q0 1-1335)
